From patent US20190367606A1 (CENTRE FOR DRUG RESEARCH AND DEVELOPMENT, published 2019)
No constants are given. Whether binding was seen depends on the method and setting. Some entries that bind do so weakly or less than the wild type. Sequences can lack the tags named with a protein.

Biological target: T1, hPodocalyxin/Fc fusion protein (human) (UniProt O00592)
T1 sequence (looked up): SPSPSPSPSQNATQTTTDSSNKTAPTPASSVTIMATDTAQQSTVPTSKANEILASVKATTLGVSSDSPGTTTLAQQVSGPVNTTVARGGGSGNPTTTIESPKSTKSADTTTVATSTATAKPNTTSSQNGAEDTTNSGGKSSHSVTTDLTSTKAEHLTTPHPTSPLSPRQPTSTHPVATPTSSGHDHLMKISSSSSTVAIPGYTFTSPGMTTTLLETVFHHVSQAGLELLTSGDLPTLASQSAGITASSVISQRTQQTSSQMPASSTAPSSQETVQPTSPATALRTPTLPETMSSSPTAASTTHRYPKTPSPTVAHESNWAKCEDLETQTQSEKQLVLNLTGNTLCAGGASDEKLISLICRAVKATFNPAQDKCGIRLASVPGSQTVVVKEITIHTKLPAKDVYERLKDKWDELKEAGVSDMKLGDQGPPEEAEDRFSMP
Assay: ELISA, rabbit B cell supernatants

binding: binds
B1: Rabbit Podo 83 (Parental rabbit antibody) (antibody, V domains shown)
VH: QSLAESGGRLVTPGTPLTLTCTASGIDLSSYAMGWVRQAPGKGLEYIGFIYASGSIFYASWAKGRFTISKTSSTTVDLKMTSLTTEDTATYFCARAGYYFGGNYDLNLWGQGTLVTVSS
VL: DIVLTQTPASVEVAVGGTVTIKCQASQSISNYLAWYQRKPGQPPRLLIYRASTLASGVSSRFKGSGSGTQFTLTISGVECADAATYYCQQGYVSNNLDNIFGGGTEVVVK
notes: Rabbit constant regions; also called Rb Podo 83 (Rb Constant Region); rabbit Podo-83 (Ab-1)
